In US20060239968A1 (University of Texas, published 2006) one finds binding data, which are given here for 1 molecule.

For this test, the target named is T1, Recombinant IL-11Rα (IL-11 receptor alpha) (UniProt Q14626).
T1 sequence (looked up): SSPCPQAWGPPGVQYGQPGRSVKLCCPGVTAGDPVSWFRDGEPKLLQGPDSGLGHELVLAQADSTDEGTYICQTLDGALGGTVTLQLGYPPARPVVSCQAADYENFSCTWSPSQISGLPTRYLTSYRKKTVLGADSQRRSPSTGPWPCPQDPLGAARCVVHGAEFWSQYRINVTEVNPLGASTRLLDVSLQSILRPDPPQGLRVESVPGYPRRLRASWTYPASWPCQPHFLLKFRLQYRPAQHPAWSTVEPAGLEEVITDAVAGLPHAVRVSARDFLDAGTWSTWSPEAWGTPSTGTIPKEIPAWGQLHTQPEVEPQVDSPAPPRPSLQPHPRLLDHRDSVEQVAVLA
The test is described as follows: in vitro ligand-receptor binding assay, phage on immobilized recombinant receptor.

These are yes or no findings as the source states them, for the method shown. Some entries that bind do so weakly or less than the wild type.

In the case of CGRRAGGSC [… (SEQ ID NO:37)-displaying phage], the binding result is on record as “binds”.
